Data taken from the supplement of paper PMC10849652.
This is one part of the list.

By UniProt entry, the sequences of proteins in these tests, tags left out. Where a name states a change or a piece, a line headed by the entry shows the natural chain unless it says otherwise.
UniProt P09972: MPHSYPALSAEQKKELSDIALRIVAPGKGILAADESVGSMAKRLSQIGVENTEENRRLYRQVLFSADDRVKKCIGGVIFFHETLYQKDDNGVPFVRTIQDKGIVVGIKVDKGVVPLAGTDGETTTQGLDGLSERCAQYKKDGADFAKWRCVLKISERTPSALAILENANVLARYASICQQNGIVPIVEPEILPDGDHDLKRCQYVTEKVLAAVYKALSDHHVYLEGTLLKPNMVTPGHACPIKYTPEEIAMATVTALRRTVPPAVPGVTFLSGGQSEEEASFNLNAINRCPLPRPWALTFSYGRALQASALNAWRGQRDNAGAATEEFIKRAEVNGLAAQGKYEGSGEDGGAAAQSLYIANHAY
UniProt Q5VTE6: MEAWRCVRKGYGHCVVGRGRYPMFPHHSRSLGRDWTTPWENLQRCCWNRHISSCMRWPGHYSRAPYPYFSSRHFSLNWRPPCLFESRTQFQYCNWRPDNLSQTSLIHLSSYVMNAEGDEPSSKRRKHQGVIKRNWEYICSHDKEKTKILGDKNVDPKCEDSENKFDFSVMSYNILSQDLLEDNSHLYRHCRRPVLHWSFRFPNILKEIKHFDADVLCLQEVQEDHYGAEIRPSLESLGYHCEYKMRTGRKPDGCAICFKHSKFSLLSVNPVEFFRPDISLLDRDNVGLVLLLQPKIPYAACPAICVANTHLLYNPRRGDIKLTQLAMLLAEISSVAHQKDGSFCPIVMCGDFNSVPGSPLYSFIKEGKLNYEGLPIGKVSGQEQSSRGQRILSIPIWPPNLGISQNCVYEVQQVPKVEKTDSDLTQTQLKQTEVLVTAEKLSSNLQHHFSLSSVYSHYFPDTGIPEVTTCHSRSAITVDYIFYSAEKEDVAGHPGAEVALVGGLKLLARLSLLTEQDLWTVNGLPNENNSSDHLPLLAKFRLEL
UniProt O94788: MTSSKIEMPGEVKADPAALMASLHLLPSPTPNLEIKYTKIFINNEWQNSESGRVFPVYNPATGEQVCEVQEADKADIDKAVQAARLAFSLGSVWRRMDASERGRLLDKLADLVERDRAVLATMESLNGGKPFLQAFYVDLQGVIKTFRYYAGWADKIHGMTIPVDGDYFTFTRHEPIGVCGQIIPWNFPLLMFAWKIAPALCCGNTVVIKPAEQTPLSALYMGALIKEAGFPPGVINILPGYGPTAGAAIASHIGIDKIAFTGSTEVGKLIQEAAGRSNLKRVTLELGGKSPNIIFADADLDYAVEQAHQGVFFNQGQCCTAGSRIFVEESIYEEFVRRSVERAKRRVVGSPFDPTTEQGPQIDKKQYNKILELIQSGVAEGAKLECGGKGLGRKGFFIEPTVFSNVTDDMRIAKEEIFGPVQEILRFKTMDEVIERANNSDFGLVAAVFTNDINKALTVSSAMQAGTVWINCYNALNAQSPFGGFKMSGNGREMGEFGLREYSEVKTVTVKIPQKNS
UniProt Q01484: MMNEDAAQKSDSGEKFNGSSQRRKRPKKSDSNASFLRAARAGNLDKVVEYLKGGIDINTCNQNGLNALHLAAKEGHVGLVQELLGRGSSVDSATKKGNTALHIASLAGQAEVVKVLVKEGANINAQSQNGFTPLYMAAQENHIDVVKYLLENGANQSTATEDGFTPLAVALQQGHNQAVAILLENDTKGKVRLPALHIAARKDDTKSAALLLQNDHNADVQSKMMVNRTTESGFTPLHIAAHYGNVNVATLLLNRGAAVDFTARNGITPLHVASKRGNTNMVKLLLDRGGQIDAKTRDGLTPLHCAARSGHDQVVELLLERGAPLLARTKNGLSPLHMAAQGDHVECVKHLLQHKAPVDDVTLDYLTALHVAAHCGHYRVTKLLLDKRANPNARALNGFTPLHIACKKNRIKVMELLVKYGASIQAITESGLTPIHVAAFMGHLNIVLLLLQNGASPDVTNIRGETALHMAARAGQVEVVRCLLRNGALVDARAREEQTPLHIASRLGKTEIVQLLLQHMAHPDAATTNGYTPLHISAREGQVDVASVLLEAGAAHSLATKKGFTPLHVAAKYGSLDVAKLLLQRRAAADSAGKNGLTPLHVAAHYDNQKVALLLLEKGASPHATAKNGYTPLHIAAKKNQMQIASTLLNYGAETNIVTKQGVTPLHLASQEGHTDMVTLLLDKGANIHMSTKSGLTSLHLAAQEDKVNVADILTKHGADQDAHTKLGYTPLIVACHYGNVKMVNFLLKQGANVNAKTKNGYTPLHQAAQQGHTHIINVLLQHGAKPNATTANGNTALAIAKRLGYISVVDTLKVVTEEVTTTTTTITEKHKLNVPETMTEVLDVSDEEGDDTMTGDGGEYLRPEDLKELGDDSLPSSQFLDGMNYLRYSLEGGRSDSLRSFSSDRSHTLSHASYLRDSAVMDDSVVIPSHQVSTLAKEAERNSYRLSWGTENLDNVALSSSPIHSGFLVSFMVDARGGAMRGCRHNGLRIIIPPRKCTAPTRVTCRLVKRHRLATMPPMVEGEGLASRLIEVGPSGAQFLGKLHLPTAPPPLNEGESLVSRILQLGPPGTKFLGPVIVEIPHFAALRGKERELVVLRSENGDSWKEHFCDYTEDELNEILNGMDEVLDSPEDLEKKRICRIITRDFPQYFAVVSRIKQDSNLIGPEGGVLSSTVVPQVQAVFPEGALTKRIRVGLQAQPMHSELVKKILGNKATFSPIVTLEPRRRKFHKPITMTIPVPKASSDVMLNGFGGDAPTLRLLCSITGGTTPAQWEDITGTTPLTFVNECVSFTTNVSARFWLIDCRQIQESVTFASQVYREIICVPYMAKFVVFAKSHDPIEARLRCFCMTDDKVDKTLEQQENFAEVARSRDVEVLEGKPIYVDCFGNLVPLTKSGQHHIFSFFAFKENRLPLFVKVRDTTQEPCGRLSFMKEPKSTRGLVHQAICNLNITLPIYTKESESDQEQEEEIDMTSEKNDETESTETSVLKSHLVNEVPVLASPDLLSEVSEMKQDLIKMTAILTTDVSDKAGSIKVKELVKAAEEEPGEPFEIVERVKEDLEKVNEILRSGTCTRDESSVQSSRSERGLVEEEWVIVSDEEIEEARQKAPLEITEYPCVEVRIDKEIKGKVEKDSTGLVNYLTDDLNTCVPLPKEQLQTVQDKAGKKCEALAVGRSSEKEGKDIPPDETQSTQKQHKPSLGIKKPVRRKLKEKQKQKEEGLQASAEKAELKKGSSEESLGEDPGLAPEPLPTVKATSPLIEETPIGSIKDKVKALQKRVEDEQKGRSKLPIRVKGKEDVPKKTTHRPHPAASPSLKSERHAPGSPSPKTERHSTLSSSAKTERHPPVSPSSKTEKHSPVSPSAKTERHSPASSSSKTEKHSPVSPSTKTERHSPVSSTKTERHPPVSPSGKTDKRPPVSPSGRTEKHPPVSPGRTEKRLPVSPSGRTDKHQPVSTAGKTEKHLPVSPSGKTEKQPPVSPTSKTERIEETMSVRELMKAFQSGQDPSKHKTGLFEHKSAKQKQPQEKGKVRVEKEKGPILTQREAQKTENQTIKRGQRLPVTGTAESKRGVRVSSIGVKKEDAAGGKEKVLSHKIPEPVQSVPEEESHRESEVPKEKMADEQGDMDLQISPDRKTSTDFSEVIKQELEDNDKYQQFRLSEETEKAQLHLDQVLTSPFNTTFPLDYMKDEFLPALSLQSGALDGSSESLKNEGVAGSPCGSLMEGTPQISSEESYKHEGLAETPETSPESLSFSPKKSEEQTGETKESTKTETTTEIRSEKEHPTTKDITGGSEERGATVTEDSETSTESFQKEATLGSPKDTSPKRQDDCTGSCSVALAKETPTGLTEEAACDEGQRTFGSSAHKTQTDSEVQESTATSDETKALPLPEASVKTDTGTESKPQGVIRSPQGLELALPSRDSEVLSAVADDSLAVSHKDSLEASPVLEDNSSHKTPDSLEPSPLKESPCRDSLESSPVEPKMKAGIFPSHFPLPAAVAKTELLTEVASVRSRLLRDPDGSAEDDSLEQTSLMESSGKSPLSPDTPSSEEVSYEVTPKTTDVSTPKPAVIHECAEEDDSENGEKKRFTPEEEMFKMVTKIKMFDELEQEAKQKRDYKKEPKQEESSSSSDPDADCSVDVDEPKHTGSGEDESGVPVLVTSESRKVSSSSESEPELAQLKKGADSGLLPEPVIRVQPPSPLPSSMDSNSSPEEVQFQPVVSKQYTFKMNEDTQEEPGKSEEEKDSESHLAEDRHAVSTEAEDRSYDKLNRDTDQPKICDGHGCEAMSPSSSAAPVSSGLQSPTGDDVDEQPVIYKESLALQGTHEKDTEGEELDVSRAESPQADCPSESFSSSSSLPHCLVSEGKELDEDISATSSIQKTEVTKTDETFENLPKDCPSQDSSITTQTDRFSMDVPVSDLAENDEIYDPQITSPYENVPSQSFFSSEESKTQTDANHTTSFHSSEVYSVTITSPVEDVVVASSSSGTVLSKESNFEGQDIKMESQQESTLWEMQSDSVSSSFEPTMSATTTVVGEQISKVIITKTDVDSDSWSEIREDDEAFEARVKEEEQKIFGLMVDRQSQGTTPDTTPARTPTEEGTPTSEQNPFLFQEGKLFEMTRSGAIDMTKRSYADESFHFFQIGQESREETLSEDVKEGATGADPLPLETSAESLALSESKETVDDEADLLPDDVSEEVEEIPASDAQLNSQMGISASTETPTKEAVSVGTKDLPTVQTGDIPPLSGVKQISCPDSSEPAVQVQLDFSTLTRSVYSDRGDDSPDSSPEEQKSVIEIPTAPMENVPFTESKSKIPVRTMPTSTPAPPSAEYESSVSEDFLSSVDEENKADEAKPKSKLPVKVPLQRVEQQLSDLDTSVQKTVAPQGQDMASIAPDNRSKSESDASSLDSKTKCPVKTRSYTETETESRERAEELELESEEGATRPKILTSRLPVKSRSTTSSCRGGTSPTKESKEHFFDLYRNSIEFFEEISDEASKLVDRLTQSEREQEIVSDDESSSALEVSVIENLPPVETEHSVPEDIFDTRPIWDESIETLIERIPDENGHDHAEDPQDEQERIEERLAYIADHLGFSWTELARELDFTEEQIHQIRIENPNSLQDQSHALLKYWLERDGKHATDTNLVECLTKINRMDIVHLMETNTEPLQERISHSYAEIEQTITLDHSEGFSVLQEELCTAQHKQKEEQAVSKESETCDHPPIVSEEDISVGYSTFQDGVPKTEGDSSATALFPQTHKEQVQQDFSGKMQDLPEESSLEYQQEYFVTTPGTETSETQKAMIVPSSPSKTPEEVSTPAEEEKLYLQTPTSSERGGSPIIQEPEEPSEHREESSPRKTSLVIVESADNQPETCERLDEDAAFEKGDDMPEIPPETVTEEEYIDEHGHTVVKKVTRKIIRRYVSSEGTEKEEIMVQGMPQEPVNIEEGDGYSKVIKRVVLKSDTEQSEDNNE
UniProt Q63HQ0: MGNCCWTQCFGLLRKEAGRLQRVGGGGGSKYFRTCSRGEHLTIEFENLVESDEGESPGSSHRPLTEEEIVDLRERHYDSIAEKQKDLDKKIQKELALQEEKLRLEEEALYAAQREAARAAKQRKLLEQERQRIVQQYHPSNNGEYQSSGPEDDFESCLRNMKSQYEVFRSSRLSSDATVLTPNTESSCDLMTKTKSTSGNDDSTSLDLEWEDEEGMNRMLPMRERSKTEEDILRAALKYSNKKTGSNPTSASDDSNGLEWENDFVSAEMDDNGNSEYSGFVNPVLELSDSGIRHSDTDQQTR
UniProt P13196: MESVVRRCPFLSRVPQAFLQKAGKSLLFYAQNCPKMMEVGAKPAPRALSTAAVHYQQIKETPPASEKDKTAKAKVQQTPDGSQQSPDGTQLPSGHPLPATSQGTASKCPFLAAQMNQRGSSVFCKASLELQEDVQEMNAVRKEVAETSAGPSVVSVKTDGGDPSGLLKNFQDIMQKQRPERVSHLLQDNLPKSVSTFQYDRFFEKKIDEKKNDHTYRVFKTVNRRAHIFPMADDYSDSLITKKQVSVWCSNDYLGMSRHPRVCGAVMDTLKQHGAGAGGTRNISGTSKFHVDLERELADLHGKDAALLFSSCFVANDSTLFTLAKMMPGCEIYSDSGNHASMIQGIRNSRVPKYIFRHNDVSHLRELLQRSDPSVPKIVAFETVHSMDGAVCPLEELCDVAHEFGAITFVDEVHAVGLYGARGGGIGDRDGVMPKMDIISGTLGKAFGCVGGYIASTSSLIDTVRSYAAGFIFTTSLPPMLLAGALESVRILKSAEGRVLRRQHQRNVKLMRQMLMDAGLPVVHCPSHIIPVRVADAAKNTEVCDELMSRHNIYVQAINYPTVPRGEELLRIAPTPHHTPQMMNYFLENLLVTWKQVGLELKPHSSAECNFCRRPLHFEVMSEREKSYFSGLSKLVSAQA
UniProt P56377: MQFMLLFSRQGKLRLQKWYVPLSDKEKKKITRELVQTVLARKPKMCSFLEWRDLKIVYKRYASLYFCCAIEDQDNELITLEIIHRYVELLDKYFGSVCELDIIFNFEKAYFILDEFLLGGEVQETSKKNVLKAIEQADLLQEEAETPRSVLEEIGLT
UniProt Q9NYG5, whole entry, looked up: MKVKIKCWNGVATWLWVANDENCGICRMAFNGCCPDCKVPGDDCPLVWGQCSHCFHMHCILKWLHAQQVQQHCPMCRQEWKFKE

Key:
Assay in all cases: log2 fold change, soluble protein after heating vs DMSO (PISA); higher = thermal stabilisation; K562 lysate, 10 uM; active = over 0.2 and 3.5 SD of the protein, either way, in both replicates (recomputed)
[1] = compound: CN1CC[C@H](c2c(O)cc(O)c3c(=O)cc(-c4ccccc4Cl)oc23)[C@H](O)C1 [alvocidib]
Summary of the method: (§1)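 Log-two fold change in thermal stability relative to solvent controls is reported from duplicates. For each sample, crude K562 extract from dounce-homogenised pellets in PBS pH 7.4 with 1 mM MgCl2, at 1 mg/mL protein, was treated with 10 μM compound for 30 min. Aliquots heated for 3 min across 48°C-58°C were pooled, brought to 0.5% NP-40 at 4°C and cleared at 21,000xg for 90 min. The supernatant was quantified by TMTpro 16plex LC-MS/MS with channel sums equalised.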

[2] = compound: CN1CCc2c(c3ccccc3n2Cc2ccc(C(=O)NO)cc2)C1 [Tubastatin A]
Summary of the method: as §1

[3] = compound: CNC(=O)C1=CC=CC=C1NC2=NC(=NC=C2Cl)NC3=C(C=C(C=C3)N4CCOCC4)OC
Summary of the method: as §1

[4] = compound: CNC(=O)c1ccc(Nc2ncc(C(F)(F)F)c(NCc3nccnc3N(C)S(C)(=O)=O)n2)cc1 [defactinib]
Summary of the method: as §1

[5] = compound: CNc1nc(-c2ccc3c(N)n[nH]c3c2)cc(N2C[C@@H](C(=O)NC3CCCCC3)CC[C@H]2C)n1
Summary of the method: as §1

[6] = compound: COC(=O)N[C@@H](C)CNc1nccc(-c2cn(C(C)C)nc2-c2cc(Cl)cc(NS(C)(=O)=O)c2F)n1 [encorafenib]
Summary of the method: as §1

[7] = compound: COC(=O)[C@H](CCSC)NC(=O)C1=C(C=C(C=C1)NC[C@H](CS)N)C2=CC=CC=C2
Summary of the method: as §1

[8] = compound: COc1cc(Nc2ncc3c(n2)-c2ccc(Cl)cc2C(c2c(F)cccc2OC)=NC3)ccc1C(=O)O [alisertib]
Summary of the method: as §1

[9] = compound: COc1cc2nc(-c3cc(F)ccc3O)nc(N[C@@H]3CNC[C@H]3C(C)(C)O)c2cc1OC
Summary of the method: as §1

[10] = compound: COc1cc2ncnc(Nc3ccc(F)c(Cl)c3)c2cc1OCCCN1CCOCC1 [gefitinib]
Summary of the method: as §1

Target | log2 fold change [1] | log2 fold change [2] | log2 fold change [3] | log2 fold change [4] | log2 fold change [5] | log2 fold change [6] | log2 fold change [7] | log2 fold change [8] | log2 fold change [9] | log2 fold change [10]
ANO10 (UniProt Q9NW15) | inactive: 0.013 | inactive: 0.022 | inactive: -0.026 | inactive: 0.009 | inactive: -0.024 | inactive: 0.017 | inactive: 0.024 | inactive: 0.002 | inactive: -0.114 | inactive: 0.008
AMDHD2 isoform 3 (UniProt Q9Y303) | inactive: -0.016 | inactive: 0 | inactive: 0.018 | inactive: 0.014 | inactive: 0.018 | inactive: -0.028 | inactive: 0.1 | inactive: 0.023 | inactive: -0.013 | inactive: 0.034
ALDOC (UniProt P09972) | inactive: 0.008 | inactive: 0.013 | inactive: -0.005 | inactive: 0.029 | inactive: -0.016 | inactive: -0.012 | inactive: -0.047 | inactive: 0.005 | inactive: -0.027 | inactive: -0.031
ANAPC2 (UniProt Q9UJX6) | inactive: 0.001 | inactive: -0.098 | inactive: -0.001 | inactive: -0.009 | inactive: -0.008 | inactive: 0.038 | inactive: 0.018 | inactive: 0.02 | inactive: 0.001 | inactive: 0.001
ANKRD40 (UniProt Q6AI12) | inactive: 0.084 | inactive: -0.164 | inactive: 0.08 | inactive: 0.095 | inactive: 0.101 | inactive: 0.04 | inactive: -0.109 | inactive: -0.188 | – | inactive: -0.089
ANGEL2 (UniProt Q5VTE6) | inactive: 0.066 | inactive: 0.042 | inactive: -0.107 | inactive: 0.022 | inactive: 0.012 | inactive: 0.027 | inactive: -0.002 | inactive: -0.117 | inactive: 0.093 | inactive: -0.206
ALDH1A2 (UniProt O94788) | inactive: 0.027 | inactive: 0.057 | inactive: -0.034 | inactive: -0.027 | inactive: -0.008 | inactive: -0.014 | inactive: -0.001 | inactive: 0.009 | inactive: -0.013 | inactive: -0.007
AMOTL1 (UniProt Q8IY63) | inactive: 0.094 | inactive: 0.055 | inactive: 0.049 | inactive: -0.072 | inactive: 0.042 | inactive: 0.145 | inactive: -0.083 | inactive: 0.037 | – | inactive: 0.057
AP2M1 (UniProt Q96CW1) | inactive: 0.011 | inactive: -0.013 | inactive: 0.021 | inactive: -0.003 | inactive: -0.009 | inactive: -0.01 | inactive: -0.036 | inactive: -0.03 | inactive: -0.015 | inactive: -0.018
ALKBH3 (UniProt Q96Q83) | inactive: -0.006 | inactive: 0.023 | inactive: 0.022 | inactive: -0.029 | inactive: 0.005 | inactive: -0.047 | inactive: 0.007 | inactive: 0.129 | inactive: -0.141 | inactive: -0.099
AP1M1 (UniProt Q9BXS5) | inactive: -0.009 | inactive: 0.007 | inactive: -0.004 | inactive: 0.013 | inactive: -0.033 | inactive: 0.011 | inactive: 0.001 | inactive: 0.001 | inactive: 0.011 | inactive: 0.014
AP2B1 isoform 2 (UniProt P63010) | inactive: -0.025 | inactive: 0.021 | inactive: 0.014 | inactive: -0.013 | inactive: 0 | inactive: -0.014 | inactive: -0.02 | inactive: -0.014 | inactive: -0.007 | inactive: -0.032
ALS2 (UniProt Q96Q42) | inactive: -0.045 | inactive: -0.263 | inactive: 0.045 | inactive: -0.105 | inactive: 0.059 | inactive: 0.005 | inactive: -0.06 | inactive: 0.076 | inactive: 0.082 | inactive: -0.11
AP3D1 isoform 5 (UniProt O14617) | inactive: -0.02 | inactive: -0.048 | inactive: 0.018 | inactive: 0.033 | inactive: 0.03 | inactive: 0.026 | inactive: -0.028 | inactive: -0.009 | inactive: 0.004 | inactive: -0.014
ANAPC16 (UniProt Q96DE5) | inactive: 0.147 | inactive: -0.062 | inactive: 0.098 | inactive: 0.144 | inactive: 0.014 | inactive: 0.045 | inactive: -0.24 | inactive: 0.11 | inactive: -0.069 | inactive: -0.076
AMDHD2 (UniProt Q9Y303) | inactive: 0.012 | – | – | inactive: -0.059 | – | – | – | – | – | –

Target | log2 fold change [1] | log2 fold change [2] | log2 fold change [3] | log2 fold change [4] | log2 fold change [5] | log2 fold change [6] | log2 fold change [7] | log2 fold change [8] | log2 fold change [9] | log2 fold change [10]
ANXA13 isoform 2 (UniProt P27216) | inactive: -0.121 | inactive: -0.072 | inactive: -0.059 | inactive: -0.036 | inactive: -0.369 | – | – | inactive: 0.047 | inactive: 0.034 | inactive: 0.085
ANK2 (UniProt Q01484) | inactive: 0.098 | inactive: 0.038 | – | – | inactive: 0.128 | – | – | inactive: 0.062 | – | inactive: -0.02
ALKBH6 isoform 2 (UniProt Q3KRA9) | inactive: 0.047 | inactive: -0.009 | inactive: -0.063 | inactive: -0.068 | inactive: 0.031 | inactive: 0.023 | inactive: 0.011 | inactive: -0.078 | – | inactive: 0.001
AP1AR (UniProt Q63HQ0) | inactive: -0.033 | inactive: 0.089 | inactive: -0.061 | inactive: 0.016 | – | inactive: -0.031 | inactive: -0.004 | inactive: 0.047 | inactive: -0.035 | inactive: 0.087
ANKRD29 (UniProt Q8N6D5) | inactive: -0.158 | – | inactive: -0.139 | inactive: -0.09 | inactive: -0.054 | inactive: -0.1 | inactive: 0.164 | inactive: 0.014 | inactive: 0.048 | inactive: 0.383
ALAS1 (UniProt P13196) | inactive: -0.027 | inactive: 0.031 | – | – | inactive: 0.177 | inactive: 0.12 | inactive: -0.279 | inactive: -0.089 | inactive: -0.183 | inactive: 0.001
ANKRD30A (UniProt Q9BXX3) | inactive: -0.148 | inactive: -0.294 | – | – | inactive: 0.017 | inactive: 0.053 | inactive: 0 | inactive: -0.009 | active: 1.45 | inactive: -0.03
ANGEL1 (UniProt Q9UNK9) | inactive: -0.048 | inactive: 0.25 | – | – | – | – | – | inactive: -0.113 | – | inactive: -0.135
ALKBH1 (UniProt Q13686) | inactive: 0.003 | inactive: -0.018 | inactive: -0.113 | inactive: -0.008 | inactive: 0.027 | inactive: -0.016 | inactive: 0.073 | inactive: -0.044 | – | inactive: -0.07
AP1S2 (UniProt P56377) | inactive: -0.486 | inactive: -0.023 | inactive: 0.098 | inactive: 0.008 | – | inactive: -0.119 | inactive: -0.044 | inactive: 0.187 | inactive: 0.014 | inactive: -0.046
AP4M1 (UniProt O00189) | inactive: 0.003 | inactive: -0.032 | inactive: -0.015 | inactive: 0.107 | inactive: -0.046 | inactive: -0.092 | inactive: -0.209 | inactive: -0.016 | – | inactive: -0.065
ALG3 (UniProt Q92685) | inactive: -0.04 | inactive: -0.009 | inactive: -0.436 | inactive: 0.165 | inactive: -0.043 | inactive: -0.061 | inactive: 0.171 | – | inactive: -0.033 | –
AP3D1 isoform 2 (UniProt O14617) | inactive: 0.25 | – | inactive: -0.06 | inactive: 0.078 | – | – | – | inactive: 0.093 | inactive: 0.087 | inactive: 0.111
ALDH3A1 (UniProt P30838) | inactive: -0.218 | inactive: 0.366 | inactive: -0.065 | – | inactive: -0.138 | – | – | – | inactive: 0.165 | –
ANAPC15 isoform 2 (UniProt P60006) | inactive: 0.046 | – | inactive: 0.037 | – | inactive: 0.214 | inactive: -0.041 | inactive: 0.221 | inactive: 0.072 | – | inactive: -0.096
ANAPC11 (UniProt Q9NYG5) | inactive: -0.026 | inactive: -0.009 | – | – | inactive: -0.07 | – | – | – | – | –

2 records picked at random from those above, as already listed:
Target | log2 fold change [1] | log2 fold change [2] | log2 fold change [3] | log2 fold change [4] | log2 fold change [5] | log2 fold change [6] | log2 fold change [7] | log2 fold change [8] | log2 fold change [9] | log2 fold change [10]
ALKBH3 (UniProt Q96Q83) | inactive: -0.006 | inactive: 0.023 | inactive: 0.022 | inactive: -0.029 | inactive: 0.005 | inactive: -0.047 | inactive: 0.007 | inactive: 0.129 | inactive: -0.141 | inactive: -0.099
ANKRD29 (UniProt Q8N6D5) | inactive: -0.158 | – | inactive: -0.139 | inactive: -0.09 | inactive: -0.054 | inactive: -0.1 | inactive: 0.164 | inactive: 0.014 | inactive: 0.048 | inactive: 0.383
